Patent US20070123518A1, “Product designed to protentiate the therapeutic effects and to enhance the action of medicinal preparations” (priority 2003, published 2007)

System: nociceptive response to electric irritation in rats

## CN1CC[C@]23c4c5ccc(O)c4O[C@H]2[C@@H](O)C=C[C@H]3[C@H]1C5 [Morphine, morphine]
30 minutes after single intraperitoneal injection
  Threshold of nociceptive response, After injection: 38.2 ± 2.8 volt
Baseline of the group
  Threshold of nociceptive response, Prior to injection: 29.7 ± 2.6 volt
